Here are results for 4 substances from patent US20250064955A1 (priority 2021, published 2025).

The series can be described thus: general procedure: solution-phase peptide synthesis; EDC/HOBt; HATU/DIEA; EDCI/HOPO/2,6-lutidine. To be noted: late stage modification step.

Take “(S)-N-((3R,4S,5S)-1-((S)-2-((1R,2R)-3-((3-((S)-2-((S)-2-Aminopropanamido)propanamido)phe methyl)amino)-1-methoxy-2-methyl-3-oxopropyl)pyrrolidin-1-yl)-3-methoxy-5-methyl-1-oxohe ptan-4-yl)-2-((S)-2-(dimethylamino)-3-methylbutanamido)-N,3-dimethylbutanamide 22”: the step yield was found to be 51%. In turn, “(S)-N-((3R,4S,5S)-1-((S)-2-((1R,2R)-3-((3-((S)-2-((S)-2-aminopropanamido)propanamido)phe methyl)amino)-1-methoxy-2-methyl-3-oxopropyl)pyrrolidin-1-yl)-3-methoxy-5-methyl-1-oxohe ptan-4-yl)-2-((S)-2-(dimethylamino)-3-methylbutanamido)-N,3-dimethylbutanamide bis(2,2,2-t rifluoroacetate)” yielded a step yield of 61% yield. Moreover, the “crude HPLC purity” value (210 nm) was found to be 99.9%. For the substance “(S)-N-((3R,4S,5S)-1-((S)-2-((1R,2R)-3-((3-aminophenethyl)amino)-1-methoxy-2-methyl-3-oxo propyl)pyrrolidin-1-yl)-3-methoxy-5-methyl-1-oxoheptan-4-yl)-2-((S)-2-(dimethylamino)-3-met hylbutanamido)-N,3-dimethylbutanamide”, the “final HPLC purity” value (210 nm) stood at 99.48%.

Turning to “(S)-N-((3R,4S,5S)-1-((S)-2-((1R,2R)-3-((3-((S)-2-((S)-2-aminopropanamido)propanamido)phe methyl)amino)-1-methoxy-2-methyl-3-oxopropyl)pyrrolidin-1-yl)-3-methoxy-5-methyl-1-oxohe ptan-4-yl)-2-((S)-2-(dimethylamino)-3-methylbutanamido)-N,3-dimethylbutanamide 13”, the step yield was determined as 65%.
